This is an account of results in the supplement of paper PMC12819154, “High-throughput peptide-centric local stability assay extends protein–ligand identification to membrane proteins, tissues and bacteria” (Nature Structural & Molecular Biology, 2025).

Protein sequences, listed by entry. Tags and fused reporters are not part of them. Lines headed by an entry give the natural chain unless they say otherwise; changes in a name come on top.
UniProt O00139: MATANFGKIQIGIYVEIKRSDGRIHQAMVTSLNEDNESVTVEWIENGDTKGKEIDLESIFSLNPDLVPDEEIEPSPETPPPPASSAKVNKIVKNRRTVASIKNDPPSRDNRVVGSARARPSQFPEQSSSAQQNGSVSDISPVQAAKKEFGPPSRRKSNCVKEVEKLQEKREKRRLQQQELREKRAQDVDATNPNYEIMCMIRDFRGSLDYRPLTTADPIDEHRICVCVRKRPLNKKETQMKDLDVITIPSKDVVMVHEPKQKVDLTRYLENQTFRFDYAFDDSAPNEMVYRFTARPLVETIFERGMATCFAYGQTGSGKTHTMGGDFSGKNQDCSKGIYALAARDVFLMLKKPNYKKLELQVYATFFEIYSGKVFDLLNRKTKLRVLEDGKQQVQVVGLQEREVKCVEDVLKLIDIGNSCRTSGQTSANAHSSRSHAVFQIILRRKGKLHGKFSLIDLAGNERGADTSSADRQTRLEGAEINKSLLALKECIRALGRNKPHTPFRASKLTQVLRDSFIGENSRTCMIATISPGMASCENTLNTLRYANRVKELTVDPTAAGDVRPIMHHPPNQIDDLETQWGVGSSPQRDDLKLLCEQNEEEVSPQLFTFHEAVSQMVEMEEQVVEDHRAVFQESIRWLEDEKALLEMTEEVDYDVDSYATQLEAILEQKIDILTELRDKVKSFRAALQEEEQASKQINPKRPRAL
UniProt O15269: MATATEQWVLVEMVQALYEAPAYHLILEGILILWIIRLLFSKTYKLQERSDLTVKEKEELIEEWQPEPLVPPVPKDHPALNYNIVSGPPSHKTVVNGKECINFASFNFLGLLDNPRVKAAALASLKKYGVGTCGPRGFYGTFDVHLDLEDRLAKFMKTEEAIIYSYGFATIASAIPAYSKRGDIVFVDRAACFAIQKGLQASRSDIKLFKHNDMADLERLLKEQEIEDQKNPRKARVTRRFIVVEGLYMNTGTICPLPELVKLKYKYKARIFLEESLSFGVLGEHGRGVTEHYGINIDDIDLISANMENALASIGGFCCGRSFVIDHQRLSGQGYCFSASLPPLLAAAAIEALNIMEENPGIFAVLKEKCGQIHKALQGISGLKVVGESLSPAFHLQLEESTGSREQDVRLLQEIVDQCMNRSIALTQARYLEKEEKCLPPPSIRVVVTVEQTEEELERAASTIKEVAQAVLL
UniProt O15155: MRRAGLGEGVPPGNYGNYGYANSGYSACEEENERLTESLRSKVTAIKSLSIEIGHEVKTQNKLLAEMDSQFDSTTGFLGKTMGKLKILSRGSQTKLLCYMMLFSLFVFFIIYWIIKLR
UniProt O14618: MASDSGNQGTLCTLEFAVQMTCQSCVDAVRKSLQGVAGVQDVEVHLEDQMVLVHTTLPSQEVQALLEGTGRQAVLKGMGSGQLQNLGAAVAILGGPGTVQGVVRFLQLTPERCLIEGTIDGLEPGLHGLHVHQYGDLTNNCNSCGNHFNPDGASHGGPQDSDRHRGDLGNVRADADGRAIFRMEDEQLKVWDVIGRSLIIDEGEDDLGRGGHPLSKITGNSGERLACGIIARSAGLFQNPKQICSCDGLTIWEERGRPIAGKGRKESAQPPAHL
UniProt O14771: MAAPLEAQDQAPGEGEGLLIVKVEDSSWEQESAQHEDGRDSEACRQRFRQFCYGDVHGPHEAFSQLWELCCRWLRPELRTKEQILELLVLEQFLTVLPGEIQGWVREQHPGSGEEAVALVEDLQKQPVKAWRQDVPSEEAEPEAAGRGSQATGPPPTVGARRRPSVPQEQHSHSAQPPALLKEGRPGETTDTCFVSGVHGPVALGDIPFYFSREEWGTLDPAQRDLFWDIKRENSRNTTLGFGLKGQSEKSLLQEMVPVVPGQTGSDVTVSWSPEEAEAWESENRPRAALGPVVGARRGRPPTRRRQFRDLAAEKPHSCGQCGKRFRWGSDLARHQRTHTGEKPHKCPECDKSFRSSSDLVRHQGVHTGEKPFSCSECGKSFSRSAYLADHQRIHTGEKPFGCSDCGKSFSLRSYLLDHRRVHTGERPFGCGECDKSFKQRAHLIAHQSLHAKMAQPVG
UniProt O00165, whole entry: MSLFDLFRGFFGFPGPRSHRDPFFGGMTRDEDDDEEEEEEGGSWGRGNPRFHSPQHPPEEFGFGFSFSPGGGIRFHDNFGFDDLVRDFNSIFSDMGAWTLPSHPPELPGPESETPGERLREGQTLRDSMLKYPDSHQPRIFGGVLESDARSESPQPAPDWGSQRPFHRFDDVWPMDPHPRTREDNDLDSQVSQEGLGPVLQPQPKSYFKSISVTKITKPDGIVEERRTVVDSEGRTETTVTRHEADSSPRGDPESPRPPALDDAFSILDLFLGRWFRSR
UniProt O00233: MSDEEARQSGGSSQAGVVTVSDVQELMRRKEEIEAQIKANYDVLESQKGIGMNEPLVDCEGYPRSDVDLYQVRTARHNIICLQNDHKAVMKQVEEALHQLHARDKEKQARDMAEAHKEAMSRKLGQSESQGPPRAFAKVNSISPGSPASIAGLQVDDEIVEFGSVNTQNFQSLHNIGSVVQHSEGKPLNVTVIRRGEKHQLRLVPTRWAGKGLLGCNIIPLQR
UniProt O14964, whole entry: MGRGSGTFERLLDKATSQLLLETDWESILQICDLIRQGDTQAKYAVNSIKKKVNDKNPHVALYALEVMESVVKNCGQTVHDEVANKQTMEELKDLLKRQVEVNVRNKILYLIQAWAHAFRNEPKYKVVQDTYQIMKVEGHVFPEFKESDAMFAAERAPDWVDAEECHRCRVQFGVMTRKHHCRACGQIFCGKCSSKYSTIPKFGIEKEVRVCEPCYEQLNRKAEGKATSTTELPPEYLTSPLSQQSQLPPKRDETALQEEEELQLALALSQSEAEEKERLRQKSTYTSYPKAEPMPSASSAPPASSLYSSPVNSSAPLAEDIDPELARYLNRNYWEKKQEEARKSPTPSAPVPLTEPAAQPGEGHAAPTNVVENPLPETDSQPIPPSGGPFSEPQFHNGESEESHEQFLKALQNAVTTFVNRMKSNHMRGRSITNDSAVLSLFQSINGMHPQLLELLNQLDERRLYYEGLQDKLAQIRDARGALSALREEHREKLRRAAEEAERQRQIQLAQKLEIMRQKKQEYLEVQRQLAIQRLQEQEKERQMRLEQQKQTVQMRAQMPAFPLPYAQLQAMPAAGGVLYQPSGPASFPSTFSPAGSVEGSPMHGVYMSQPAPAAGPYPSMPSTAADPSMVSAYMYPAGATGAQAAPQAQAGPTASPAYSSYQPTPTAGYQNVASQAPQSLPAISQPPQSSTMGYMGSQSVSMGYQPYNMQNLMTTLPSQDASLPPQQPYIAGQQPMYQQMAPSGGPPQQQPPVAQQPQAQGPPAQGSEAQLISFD
UniProt O14530: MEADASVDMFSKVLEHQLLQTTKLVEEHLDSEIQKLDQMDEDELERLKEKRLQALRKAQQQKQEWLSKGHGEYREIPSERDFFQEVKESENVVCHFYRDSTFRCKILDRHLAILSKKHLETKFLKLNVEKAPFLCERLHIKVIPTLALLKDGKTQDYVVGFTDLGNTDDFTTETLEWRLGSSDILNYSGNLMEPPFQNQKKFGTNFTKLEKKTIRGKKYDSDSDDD
UniProt O00401, whole entry: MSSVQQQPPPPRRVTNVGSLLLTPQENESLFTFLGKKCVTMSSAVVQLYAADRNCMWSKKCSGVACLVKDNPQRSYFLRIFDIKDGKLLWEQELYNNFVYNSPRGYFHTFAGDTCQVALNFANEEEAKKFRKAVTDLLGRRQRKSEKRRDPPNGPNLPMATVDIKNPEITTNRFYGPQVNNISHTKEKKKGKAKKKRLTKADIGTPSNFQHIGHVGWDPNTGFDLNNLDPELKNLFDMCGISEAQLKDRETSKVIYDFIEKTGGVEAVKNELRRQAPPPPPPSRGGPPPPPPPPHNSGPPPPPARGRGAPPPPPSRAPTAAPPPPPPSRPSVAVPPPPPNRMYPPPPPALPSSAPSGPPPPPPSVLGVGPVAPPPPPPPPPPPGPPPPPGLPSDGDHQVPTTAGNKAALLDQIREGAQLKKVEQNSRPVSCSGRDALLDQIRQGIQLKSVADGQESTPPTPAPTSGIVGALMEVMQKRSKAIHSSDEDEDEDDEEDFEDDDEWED
UniProt O14607, whole entry: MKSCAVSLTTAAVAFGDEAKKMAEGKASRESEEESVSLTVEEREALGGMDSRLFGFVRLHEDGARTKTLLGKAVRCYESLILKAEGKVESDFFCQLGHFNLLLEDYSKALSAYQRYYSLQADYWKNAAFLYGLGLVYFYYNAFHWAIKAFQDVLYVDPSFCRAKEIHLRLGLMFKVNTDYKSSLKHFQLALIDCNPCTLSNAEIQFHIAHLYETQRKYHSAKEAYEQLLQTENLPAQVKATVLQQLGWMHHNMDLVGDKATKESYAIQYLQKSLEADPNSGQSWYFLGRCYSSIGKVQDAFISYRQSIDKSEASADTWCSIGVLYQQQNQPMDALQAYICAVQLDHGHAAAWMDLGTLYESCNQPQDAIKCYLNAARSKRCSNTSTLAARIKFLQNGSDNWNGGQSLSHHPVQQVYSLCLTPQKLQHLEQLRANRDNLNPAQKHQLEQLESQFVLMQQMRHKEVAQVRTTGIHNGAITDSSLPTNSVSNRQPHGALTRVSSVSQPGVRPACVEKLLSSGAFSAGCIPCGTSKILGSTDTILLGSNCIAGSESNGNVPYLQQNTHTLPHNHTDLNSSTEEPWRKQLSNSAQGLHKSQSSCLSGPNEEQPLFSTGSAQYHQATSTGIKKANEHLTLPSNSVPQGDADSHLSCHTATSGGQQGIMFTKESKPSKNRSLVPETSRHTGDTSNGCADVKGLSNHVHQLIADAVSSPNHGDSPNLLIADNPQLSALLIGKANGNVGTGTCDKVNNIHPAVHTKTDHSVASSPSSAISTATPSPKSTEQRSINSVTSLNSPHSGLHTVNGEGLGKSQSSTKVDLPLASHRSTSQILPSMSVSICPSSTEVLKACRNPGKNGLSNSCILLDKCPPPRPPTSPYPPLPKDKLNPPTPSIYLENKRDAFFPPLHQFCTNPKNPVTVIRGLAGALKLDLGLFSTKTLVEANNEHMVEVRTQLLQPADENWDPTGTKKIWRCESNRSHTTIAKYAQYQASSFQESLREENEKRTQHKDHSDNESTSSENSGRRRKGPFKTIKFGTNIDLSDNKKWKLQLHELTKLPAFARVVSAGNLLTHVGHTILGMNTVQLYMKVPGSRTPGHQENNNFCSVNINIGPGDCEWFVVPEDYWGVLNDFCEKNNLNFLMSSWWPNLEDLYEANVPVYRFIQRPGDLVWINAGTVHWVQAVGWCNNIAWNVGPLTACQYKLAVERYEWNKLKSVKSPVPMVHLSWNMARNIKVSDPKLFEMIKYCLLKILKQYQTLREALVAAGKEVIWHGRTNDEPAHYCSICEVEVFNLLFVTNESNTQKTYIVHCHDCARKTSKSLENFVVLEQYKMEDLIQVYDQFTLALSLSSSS

Some of the results follow. Small differences around the control level are noise.

Compound in this assay: CN[C@@H]1C[C@H]2O[C@@](C)([C@@H]1OC)n1c3ccccc3c3c4c(c5c6ccccc6n2c5c31)C(=O)NC4 [staurosporine]
Nature of the assay: log2 fold change of tryptic peptide abundance, ligand vs vehicle (limited proteolysis) (log2 ratio); higher = more trypsin-susceptible (destabilized). The conditions noted are these: ligand concentration: 20 uM; sample: K562 cleared lysate; digestion: 4 min, 22 C (HT-PELSA RT4min, Orbitrap Astral).
As to “KIF2A (peptide sequence: NKPHTPFR, peptide start residue: 498) (UniProt O00139)”, the log2 fold change came to 0.28.
With “SPTLC1 (peptide sequence: GDIVFVDR, peptide start residue: 182) (UniProt O15269)” the figure was -0.226; with “BET1 (peptide sequence: SLSIEIGHEVK, peptide start residue: 48) (UniProt O15155)”, 0.00283.
With “UniProt O14618 (peptide sequence: QICSCDGLTIWEER, peptide start residue: 242)”, the log2 fold change is -0.247.
On to “UniProt O14771 (peptide sequence: AALGPVVGAR, peptide start residue: 288)”, for which the log2 fold change was -0.237.
Consider “HAX1 (peptide sequence: FHSPQHPPEEFGFGFSFSPGGGIR, peptide start residue: 51) (UniProt O00165)”, for which the log2 fold change is -0.275.
For the target “PSMD9 (peptide sequence: DMAEAHKEAMSR, peptide start residue: 111) (UniProt O00233)”, the log2 fold change was determined as 0.329.
For “HGS (peptide sequence: ESDAMFAAER, peptide start residue: 147) (UniProt O14964)”, the log2 fold change worked out at 0.242.
For “TXNDC9 (peptide sequence: ESENVVCHFYR, peptide start residue: 88) (UniProt O14530)”, the log2 fold change was -0.362.
On to “WASL (peptide sequence: KAVTDLLGR, peptide start residue: 132) (UniProt O00401)”, for which the log2 fold change is 0.759.
As to “UniProt O14607 (peptide sequence: VNNIHPAVHTK, peptide start residue: 800)”, the log2 fold change was 0.904.
